Measurements as given in patent US20030113828A1, “Compositions and methods for modulating Syk function” (priority 2001, published 2003).
At least one peptide structure holds a part that was inferred or is arguable (an end, a ring closure or a residue). Square brackets hold non-standard residues; d marks the D form. Peptide text beside a SMILES is read from it. pY = N[C@@H](Cc1ccc(OP(=O)(O)O)cc1)C(=O)O

Target: T1, binding of Syk(6-370) to the β3 tail (Homo sapiens, UniProt P43405)
T1 construct: made in house; host or cells: bacteria (pGEX vector, IPTG induction)
Test: pITAM peptide competition in direct binding assay
Settings: soluble pITAM peptide 40 μM, 8000-fold molar excess
Method: To verify that the Syk-β3 interaction is pITAM-independent mechanism, the effect of 8000-fold molar excess of PITAM peptides on binding of Syk(6-370) to the β3 tail was examined. […] Similar data were obtained in a quantitative enzyme-linked immunosorbent assay. The FcεRIγ pITAM peptides were functional, as they activated Syk kinase (EC50 1-2 μM) in vitro (Shiue et al.(1995) J Biol Chem 270:10498-10502). Thus, Syk recognition of β3 involves a unique specificity, distinct from Syk's interaction with pITAMs.
Following incubation, beads were washed and bound protein was analyzed by immunoblotting.

SMILES: CC(C)C[C@H](NC(=O)CNC(=O)[C@@H](NC(=O)[C@H](Cc1ccc(OP(=O)(O)O)cc1)NC(=O)[C@@H](NC(=O)CNC(=O)[C@@H](N)CC(=O)O)C(C)C)[C@@H](C)O)C(=O)N[C@@H](CO)C(=O)N[C@H](C(=O)N[C@@H](CCCNC(=N)N)C(=O)N[C@@H](CC(N)=O)C(=O)N[C@@H](CCC(N)=O)C(=O)N[C@@H](CCC(=O)O)C(=O)N[C@H](C(=O)N[C@@H](Cc1ccc(OP(=O)(O)O)cc1)C(=O)N[C@@H](CCC(=O)O)C(=O)N[C@H](C(=O)N[C@@H](CC(C)C)C(=O)N[C@@H](CCCCN)C(=O)N[C@H](C(=O)N[C@@H](CS)C(=O)N[C@@H](CCCNC(=N)N)C(=O)O)[C@@H](C)O)[C@@H](C)O)[C@@H](C)O)[C@@H](C)O [FcεRIγ ITAM peptide, DGVY(PO3)TGLSTRNQETY(PO3)ETLKTCR (SEQ ID NO:1)] (H-DGV[pY]TGLSTRNQET[pY]ETLKTCR-OH)
- competition with the β3 integrin cytoplasmic tail for binding to Syk(6-370): failed to compete
